According to PubChem BioAssay AID540275 (National Center for Advancing Translational Sciences (NCATS), 2011):
Among all 320,000 compounds or so, about 620 (0.19%) were called active. The inconclusive results got no clear call from the source; some entries with a clear call stand among them for comparison. No stated cut-off is given here; in the data, active means activation above about 80%; inconclusive means between about 30% and that limit; inactive means weaker than that.
Further: 0% is about no effect.

Chains of the proteins cited; added tags and fusions are not shown.
UniProt Q8NER1, whole entry, looked up: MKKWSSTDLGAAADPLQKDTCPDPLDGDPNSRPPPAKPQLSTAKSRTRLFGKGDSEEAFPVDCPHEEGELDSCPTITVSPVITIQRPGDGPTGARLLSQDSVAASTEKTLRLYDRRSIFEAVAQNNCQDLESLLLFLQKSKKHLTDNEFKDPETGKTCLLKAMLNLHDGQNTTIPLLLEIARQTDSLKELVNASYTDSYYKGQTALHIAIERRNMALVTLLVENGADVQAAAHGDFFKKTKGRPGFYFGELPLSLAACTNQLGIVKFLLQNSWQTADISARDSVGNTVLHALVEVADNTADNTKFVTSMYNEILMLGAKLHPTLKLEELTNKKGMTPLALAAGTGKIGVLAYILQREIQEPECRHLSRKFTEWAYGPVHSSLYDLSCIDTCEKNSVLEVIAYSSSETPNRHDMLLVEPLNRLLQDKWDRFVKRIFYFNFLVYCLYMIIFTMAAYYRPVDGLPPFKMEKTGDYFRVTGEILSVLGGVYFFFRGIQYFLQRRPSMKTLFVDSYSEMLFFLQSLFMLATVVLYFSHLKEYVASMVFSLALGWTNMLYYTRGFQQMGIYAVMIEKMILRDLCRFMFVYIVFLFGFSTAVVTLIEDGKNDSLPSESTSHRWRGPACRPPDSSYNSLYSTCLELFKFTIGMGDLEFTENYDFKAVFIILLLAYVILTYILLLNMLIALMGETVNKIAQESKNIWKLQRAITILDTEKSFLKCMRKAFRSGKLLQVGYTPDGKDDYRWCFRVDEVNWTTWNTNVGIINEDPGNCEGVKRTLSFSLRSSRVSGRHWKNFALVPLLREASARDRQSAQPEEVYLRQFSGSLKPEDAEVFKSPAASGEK

What follows are compounds tested against Transient receptor potential cation channel subfamily V member 1 (Homo sapiens) (UniProt Q8NER1) (assay: HTS Assay for Compounds that Act as Agonists of the Vanilloid Receptor 1). Details: TRPV1-expressing cells, Fluo-8 calcium influx, agonist mode; at 8.33 µM, active compounds read high.
Outline: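 Cells expressing TRPV1 were dye-loaded with Fluo-8 and read kinetically: 10 s baseline, 3 min after compound (agonist portion), then 2 min after EC20 capsaicin (allosteric enhancer portion). Calcium-bound dye fluorescence at 480/520 nm.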
Cc1ccc(-n2nc3c(N4CCC(C(=O)NCc5cccc(F)c5)CC4)nnc(C)c3c2C)cc1 was tested, and the activation was inconclusive: 71%.
CC(=O)Nc1cc(C(=O)N2CCCC2)ccc1Sc1ccc(C)cc1 was tested, and the activation was inactive: -0.908%.
In the case of CN(C)c1ccc(-c2nn3c(-c4ccccc4Cl)nnc3s2)cc1, the activation is reported as inactive: 4.17%.
In the case of CC(=O)c1cccc(NC(=O)NC2CCCCCCC2)c1, the activation is reported as inconclusive: 79.8%.
For COc1ccccc1N1CCN(CCCn2c(=S)[nH]c3ccccc3c2=O)CC1, the activation was inactive: 19.4%.
Cc1cccc(OCCCn2c(CCNC(=O)C(C)C)nc3ccccc32)c1 was tested, and the activation was inconclusive: 52.1%.
CC(C)(C)NC(=O)CSc1nsc(SCC(=O)NC(C)(C)C)c1C#N was tested, and the activation was inactive: 1.94%.
For COc1ccc(NC2=C(C(C)=O)C(c3ccccc3)C(C(C)=O)C(C)(O)C2)cc1 (stereo not drawn), the activation was inconclusive: 44.6%.
For COc1ccccc1-c1cc(C(=O)N/N=C/c2ccoc2)c2ccccc2n1, the activation was inconclusive: 42.3%.
In the case of C/C=C/C1=CC(=O)C[C@H](c2ccc3c(c2)OCO3)C1, the activation is reported as inconclusive: 44.3%.
With Cc1ccc(/C(C#N)=C\c2cn(C)c3ccccc23)cc1 the activation was inconclusive: 34.7%.
For Cc1cccc(-c2nn(-c3ccccc3)cc2C(=O)N(C)CC(=O)Nc2ccc(N3CCOCC3)cc2)c1, the activation was inactive: 14.1%.
In the case of COc1cccc(C(=O)NCCSc2ccc(F)cc2)c1, the activation is reported as inconclusive: 68%.
With Cc1ccc(CSCC(=O)Nc2ccccc2)cc1 the activation was inconclusive: 37.4%.
In the case of CCOc1cnc(-c2c(-c3c(F)cccc3Cl)noc2C)o1, the activation is reported as inactive: 25.2%.
In the case of CCOC(=O)[C@H]1[C@H]2COc3cc(OC)ccc3[C@@H]2N2C(=O)c3cc(OC)ccc3NC(=O)[C@@]12C, the activation is reported as inconclusive: 45.7%.
With NC(=S)NN=C(c1ccccc1)c1ccccc1 the activation was inconclusive: 31.6%.
In the case of Cc1nnc(C)n1/N=C/c1cccc(Oc2ccccc2)c1, the activation is reported as inconclusive: 36.1%.
With CSc1ccc(C(=O)C2CCCN(C(=O)c3cccnc3SC)C2)cc1 (stereo not drawn) the activation was inactive: 2.13%.
CCCCNc1c(-c2ccc(SC(C)CC)c(OC)c2)nc2ccc(C)cn12 (stereo not drawn) was tested, and the activation was inconclusive: 43.6%.
For CCc1ccc(C(C)NC(=O)c2ccc3c(c2)OCO3)cc1 (stereo not drawn), the activation was inconclusive: 43.1%.
In the case of O=C(c1ccc(Br)o1)N1CCC(Cc2ccccc2)CC1, the activation is reported as inconclusive: 37.8%.
For Cc1ccccc1COn1nnc2ccc(S(=O)(=O)N3CCOCC3)cc21, the activation was inconclusive: 66.4%.
In the case of O=C(COc1ccccc1Cl)Nc1ccc2c(c1)OCO2, the activation is reported as inconclusive: 37.9%.
Cc1ccc(NC(=O)c2c(Cl)nc3ccccn23)cc1 was tested, and the activation was inconclusive: 44.8%.
In the case of Cc1ccc2occ(/C=C/C(=O)c3ccccc3O)c(=O)c2c1, the activation is reported as inactive: 9.48%.
In the case of COC(=O)c1cc(NC(=O)Cc2ccccc2[N+](=O)[O-])ccc1Cl, the activation is reported as inconclusive: 63%.
CC(=O)c1cn(-c2ccc(Cl)cc2)c(=O)[nH]c1=O was tested, and the activation was inactive: 2.05%.
With Cc1ccc(SCC(=O)Nc2ccc(N3CCOCC3)cc2)c(C)c1 the activation was inconclusive: 44.9%.
CCCCc1ccc(NC(=S)NCCc2ccc(S(N)(=O)=O)cc2)cc1 was tested, and the activation was inconclusive: 31.9%.
For COCCCN1C(=O)c2ccc(C(=O)OCC(=O)NCc3cccc(OC)c3)cc2C1=O, the activation was inconclusive: 51.2%.
O=C(C1CCN(c2ncnc3c2sc2cccc(F)c23)CC1)N1CCOCC1 was tested, and the activation was inconclusive: 42.7%.
For Cc1ccc(C(=O)N2CCN(c3ccccc3)CC2)cc1S(=O)(=O)N1CCCC1, the activation was inactive: 19.5%.
CCc1ccc(NC(=O)c2cc(S(=O)(=O)N3CCCC3)c[nH]2)cc1 was tested, and the activation was inconclusive: 60.3%.
For CCCCNC(=O)c1sc2ncnc(N3CCc4ccccc4C3)c2c1C, the activation was inconclusive: 76.1%.
For Cc1ccc(-c2nnc(Nc3ccccc3)o2)cc1, the activation was inconclusive: 55.3%.
With COC(=O)c1sccc1NC(=O)Nc1ccc(Cl)c(Cl)c1 the activation was inconclusive: 57.2%.
For Cc1ccc(Sc2ccc(NC(=O)c3ccc(S(C)(=O)=O)cc3Cl)cc2)cc1, the activation was inconclusive: 45%.
NC(=O)C1CCN(C(=S)NCCc2ccccc2)CC1 was tested, and the activation was inconclusive: 41.6%.
With Cc1nn(-c2ccc(F)cc2)c(Cl)c1C(=O)N(C)CC(=O)Nc1cccc(F)c1 the activation was inactive: 10.1%.
CCOc1ccccc1NC(=O)CNS(=O)(=O)c1ccc2nc(C)sc2c1 was tested, and the activation was inconclusive: 31.8%.
With CCC1Oc2ccc(C)cc2N(CC(=O)N(Cc2ccc(C)o2)C2CCCC2)C1=O (stereo not drawn) the activation was inconclusive: 56.7%.
In the case of O=C(NCCc1ccccc1)c1ccc(Br)o1, the activation is reported as inconclusive: 58.2%.
In the case of O=C(O)CCCc1nc(-c2ccc(Cl)cc2)no1, the activation is reported as inactive: -1.11%.
CCCCNC(=O)CSc1nc2ccccc2n1S(=O)(=O)c1ccc(Br)cc1 was tested, and the activation was inconclusive: 43.5%.
With O=C(/C=C/c1ccc(O)cc1)c1ccccc1 the activation was inconclusive: 31.9%.
With CCOc1ccc(NC(=O)C2CCN(C(=O)NC3CCCCC3)CC2)cc1 the activation was inconclusive: 56.2%.
For COc1ccc(N/C=C(\C#N)c2nc3ccccc3n2C)c(OC)c1, the activation was inactive: 2.93%.
O=C(Nc1ccccc1Cl)Oc1ccc(Cl)cc1Cl was tested, and the activation was inconclusive: 30.3%.
For CC1CCN(CCOCCOc2ccc(Cl)cc2Br)CC1, the activation was inactive: -2.95%.
In the case of CC(C)(C)c1ccc(OCC(=O)NC2CCS(=O)(=O)C2)cc1 (stereo not drawn), the activation is reported as inconclusive: 56%.
With Cc1ccc(C(=O)/C=C/c2ccc3c(c2)OCO3)o1 the activation was inconclusive: 30.1%.
With Cc1ccc2[nH]c(=O)c(CN(CCc3ccccc3)Cc3nnnn3CC3CCCO3)cc2c1 (stereo not drawn) the activation was inactive: 10.3%.
For COc1ccc(C(=O)N/N=C/c2ccc(SC)cc2)cc1, the activation was inconclusive: 42.6%.
For COC(=O)c1ccc(CNC(=O)CN(CCC(C)C)S(=O)(=O)c2ccc3c(c2)OCCO3)cc1, the activation was inconclusive: 57.8%.
In the case of CC(Nc1ccc(Cl)c(Cl)c1)C(=O)NN (stereo not drawn), the activation is reported as inconclusive: 35.5%.
In the case of O=C(Cn1c(=O)oc2cc(S(=O)(=O)N3CCCCCC3)ccc21)NC1CCCCCCC1, the activation is reported as inconclusive: 31%.
In the case of CCc1c(C)sc(NC(=O)c2cc(CC(C)C)on2)c1C#N, the activation is reported as inconclusive: 32.7%.
